These are yes or no findings as the source states them, for the method shown. Binding seen in cells or lysates may run through a third protein.
Target: FLAG-hnRNPUL1^RK (R612K, R618K, R620K, R639K, R645K, R656K and R661K) (human) (UniProt Q9BUJ2)
Assay: co-IP; anti-FLAG immunoprecipitation from lysates of transfected HEK293 cells (50 mM HEPES pH 7.4, 150 mM NaCl, 1% Triton X-100; protein A Sepharose), blot for endogenous PRMT1

Protein sequences, listed by entry. Tags and fused reporters are not part of them. Lines headed by an entry give the natural chain unless they say otherwise; changes in a name come on top. Chains listed by the source or under a name are the forms on record and can include a tag or linker.
FLAG-hnRNPUL1^RK (R612K, R618K, R620K, R639K, R645K, R656K and R661K) (Q9BUJ2, form named): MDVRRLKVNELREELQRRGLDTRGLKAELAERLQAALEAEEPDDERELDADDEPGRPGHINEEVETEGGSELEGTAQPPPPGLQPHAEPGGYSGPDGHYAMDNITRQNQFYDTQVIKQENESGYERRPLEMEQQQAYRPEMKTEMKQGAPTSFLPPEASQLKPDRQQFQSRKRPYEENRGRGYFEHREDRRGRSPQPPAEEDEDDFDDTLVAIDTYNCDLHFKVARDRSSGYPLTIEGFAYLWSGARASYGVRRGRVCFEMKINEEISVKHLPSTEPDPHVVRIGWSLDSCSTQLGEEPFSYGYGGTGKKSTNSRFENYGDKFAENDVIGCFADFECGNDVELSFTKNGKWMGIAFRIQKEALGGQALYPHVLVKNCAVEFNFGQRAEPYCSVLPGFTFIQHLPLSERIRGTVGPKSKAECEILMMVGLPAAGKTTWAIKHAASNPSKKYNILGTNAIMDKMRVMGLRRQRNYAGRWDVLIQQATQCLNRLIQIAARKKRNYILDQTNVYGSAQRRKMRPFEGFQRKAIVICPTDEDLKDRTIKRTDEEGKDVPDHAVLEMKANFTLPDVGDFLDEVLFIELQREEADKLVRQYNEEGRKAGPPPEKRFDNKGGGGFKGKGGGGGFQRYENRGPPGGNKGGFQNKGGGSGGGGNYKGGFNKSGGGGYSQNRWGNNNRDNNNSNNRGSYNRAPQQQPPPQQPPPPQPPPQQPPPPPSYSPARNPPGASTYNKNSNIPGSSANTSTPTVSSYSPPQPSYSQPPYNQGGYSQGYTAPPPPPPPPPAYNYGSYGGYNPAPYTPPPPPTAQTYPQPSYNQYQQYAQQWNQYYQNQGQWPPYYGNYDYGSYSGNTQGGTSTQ
UniProt Q99873: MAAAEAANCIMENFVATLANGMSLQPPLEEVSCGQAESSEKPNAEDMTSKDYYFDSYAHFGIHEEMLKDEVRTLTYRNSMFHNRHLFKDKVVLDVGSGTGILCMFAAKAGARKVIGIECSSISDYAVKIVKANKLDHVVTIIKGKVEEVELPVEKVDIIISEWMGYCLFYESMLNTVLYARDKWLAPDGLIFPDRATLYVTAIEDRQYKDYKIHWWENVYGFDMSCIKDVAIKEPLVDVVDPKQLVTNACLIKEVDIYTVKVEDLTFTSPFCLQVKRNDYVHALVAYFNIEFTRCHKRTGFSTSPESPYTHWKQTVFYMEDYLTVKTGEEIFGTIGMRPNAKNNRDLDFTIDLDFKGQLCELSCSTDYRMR

protein arginine methyltransferase 1 (PRMT1), endogenous (from UniProt Q99873 1-371) (enzyme)
binding: no binding
